These are yes or no findings as the source states them, for the method shown. Binding seen in cells or lysates may run through a third protein. Some entries that bind do so weakly or less than the wild type.

Chains of the proteins cited; added tags and fusions are not shown.
UniProt O15169: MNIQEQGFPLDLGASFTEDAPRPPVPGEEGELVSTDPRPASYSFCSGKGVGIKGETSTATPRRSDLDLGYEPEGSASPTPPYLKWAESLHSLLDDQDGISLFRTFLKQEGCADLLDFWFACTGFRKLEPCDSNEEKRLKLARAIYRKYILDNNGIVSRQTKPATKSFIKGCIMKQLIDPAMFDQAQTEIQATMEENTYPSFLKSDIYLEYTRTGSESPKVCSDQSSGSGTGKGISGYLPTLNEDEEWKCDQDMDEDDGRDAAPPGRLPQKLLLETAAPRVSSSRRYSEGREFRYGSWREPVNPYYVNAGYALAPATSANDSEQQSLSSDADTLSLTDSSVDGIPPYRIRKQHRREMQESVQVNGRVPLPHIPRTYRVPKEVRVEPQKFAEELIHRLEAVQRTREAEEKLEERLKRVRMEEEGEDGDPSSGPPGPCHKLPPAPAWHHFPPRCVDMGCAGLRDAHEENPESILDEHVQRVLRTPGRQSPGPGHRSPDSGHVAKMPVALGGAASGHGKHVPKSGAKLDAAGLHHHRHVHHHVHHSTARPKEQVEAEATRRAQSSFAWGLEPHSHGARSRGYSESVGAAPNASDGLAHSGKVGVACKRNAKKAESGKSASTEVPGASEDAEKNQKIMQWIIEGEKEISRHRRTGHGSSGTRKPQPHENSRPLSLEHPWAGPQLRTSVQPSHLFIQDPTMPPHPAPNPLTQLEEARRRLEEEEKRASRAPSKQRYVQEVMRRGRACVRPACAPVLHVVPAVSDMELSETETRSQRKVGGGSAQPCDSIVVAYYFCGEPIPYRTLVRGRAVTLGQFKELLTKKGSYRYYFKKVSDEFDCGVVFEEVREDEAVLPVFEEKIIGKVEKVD
UniProt O00429: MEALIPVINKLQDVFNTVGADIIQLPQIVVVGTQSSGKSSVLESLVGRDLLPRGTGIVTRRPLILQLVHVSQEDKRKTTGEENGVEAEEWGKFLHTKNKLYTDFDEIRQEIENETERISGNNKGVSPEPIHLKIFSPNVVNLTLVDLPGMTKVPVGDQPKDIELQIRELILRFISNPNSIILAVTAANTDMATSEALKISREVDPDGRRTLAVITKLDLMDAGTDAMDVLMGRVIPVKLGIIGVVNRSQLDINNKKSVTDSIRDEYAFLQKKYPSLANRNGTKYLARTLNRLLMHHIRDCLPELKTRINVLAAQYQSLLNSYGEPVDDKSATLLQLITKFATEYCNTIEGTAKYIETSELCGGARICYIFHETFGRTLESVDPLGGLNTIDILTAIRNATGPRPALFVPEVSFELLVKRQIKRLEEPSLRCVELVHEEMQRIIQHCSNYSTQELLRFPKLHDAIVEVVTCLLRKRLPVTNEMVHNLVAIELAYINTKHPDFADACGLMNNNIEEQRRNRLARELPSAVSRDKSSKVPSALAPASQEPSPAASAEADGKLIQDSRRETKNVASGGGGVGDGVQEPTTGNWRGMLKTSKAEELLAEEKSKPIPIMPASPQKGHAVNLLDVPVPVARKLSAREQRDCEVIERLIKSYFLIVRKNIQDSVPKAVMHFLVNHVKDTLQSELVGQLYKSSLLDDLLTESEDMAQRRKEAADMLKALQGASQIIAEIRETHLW

This assay has as its target Axin1 (human (endogenous in ARPE-19)) (UniProt O15169). Put plainly: co-IP; endogenous proteins in ARPE-19 cell lysate; 3 ug Axin1 antibody or control rabbit IgG at 4 °C overnight, protein A and G magnetic beads 4 h at 4 °C; lysis buffer 20 mM Tris-HCl pH 8, 137 mM NaCl, 1% IGEPAL CA-630, 0.1% Triton X-100, 2 mM EDTA; western blot. Background: In western blotting, separated proteins are transferred to a membrane and probed.

Take “dynamin-related protein 1 (Drp1) (from UniProt O00429 1-736)”: the binding entry is listed as “binds”.

For the origin of these results see paper PMC7242393.
